Test results: patent US20240190999A1

Assays:
[1] = molecular target: biotinylated cynomolgus 4-1BB (bio.c4-1BB) (cynomolgus monkey); assay: SPR (ProteOn XPR36)
[2] = molecular target: cynomolgus FAP (cFAP) (cynomolgus monkey); assay: SPR (ProteOn XPR36)

B1: Multispecific binding protein A (MpA) (designed binder)
chain: GSDLGKKLLEAARAGQDDEVRELLKAGADVNAKDYFSHTPLHLAARNGHLKIVEVLLKAGADVNAKDFAGKTPLHLAAADGHLEIVEVLLKAGADVNAQDIFGKTPADIAADAGHEDIAEVLQKAAGSPTPTPTTPTPTPTTPTPTPTGSDLGKKLLEAARAGQDDEVRELLKAGADVNAKDVLGWTPLHLAAFEGHLEIVEVLLKAGADVNAKDKKGWTPLQLAARTGHLEIVEVLLKAGADVNAKDHIGATPLHLAAWQGHPEIVEVLLKAGADVNAQDKSGKTPADLAADAGHEDIAEVLQKAAGSPTPTPTTPTPTPTTPTPTPTGSDLGQKLLKAAQEGQDDEVRELLKAGADVNAKDLRGITPLHVAAWQGHLEIVEVLLKAGADVNAKDSKGETPLHLAAFRGHLEIVEVLLKAGADVNAQDQQGETPADLAALAGHVDIAEVLQKAAGSPTPTPTTPTPTPTTPTPTPTGSDLGQKLLKAAQEGQDDEVRELLKAGADVNAKDLRGITPLHVAAWQGHLEIVEVLLKAGADVNAKDSKGETPLHLAAFRGHLEIVEVLLKAGADVNAQDQQGETPADLAALAGHVDIAEVLQKAAGSPTPTPTTPTPTPTTPTPTPTGSDLGKKLLEAARAGQDDEVRELLKAGADVNAKDYFSHTPLHLAARNGHLKIVEVLLKAGADVNAKDFAGKTPLHLAAADGHLEIVEVLLKAGADVNAQDIFGKTPADIAADAGHEDIAEVLQKAA
- binding [1]: binds
- binding [2]: binds

B2: bispecific construct #44 (designed binder)
chain: MRGSHHHHHHGSDLGEKLLVAALYGQDDEVRILLAAGADVNAKDQWGLTPLHKAALQGHLEIVEVLLKAGADVNAKDERGHTPLHWAARFGHLEIVEVLLKAGADVNAQDQKGYTPADLAALWGHEDIAEVLQKAAGSPTPTPTTPTPTPTTPTPTPTGSDLGQKLLKAAQEGQDDEVRELLKAGADVNAKDLRGITPLHVAAWQGHLEIVEVLLKAGADVNAKDSKGETPLHLAAFRGHLEIVEVLLKAGADVNAQDQQGETPADLAALAGHVDIAEVLQKLN
- binding [1]: binds

B3: bispecific construct #47 (designed binder)
chain: MRGSHHHHHHGSDLGEKLLVAALYGQDDEVRILLAAGADVNAKDQWGLTPLHKAALQGHLEIVEVLLKAGADVNAKDERGHTPLHWAARFGHLEIVEVLLKAGADVNAQDQKGYTPADLAALWGHEDIAEVLQKAAGSPTPTPTTPTPTPTTPTPTPTGSDLGKKLLEAARAGQDDEVRELLKAGADVNAKDTYGETPLHLAAWKGHLEIVEVLLKAGADVNAKDSIGITPLHVAAHHGHLEIVEVLLKAGADVNAKDKWGRTPLHLAALLGHLEIAEVLLKAGADVNAQDKSGKTPADLAADAGHDDIAEVLQKLN
- binding [1]: binds

B4: bispecific construct #49 (designed binder)
chain: MRGSHHHHHHGSDLGEKLLVAALYGQDDEVRILLAAGADVNAKDQWGLTPLHKAALQGHLEIVEVLLKAGADVNAKDERGHTPLHWAARFGHLEIVEVLLKAGADVNAQDQKGYTPADLAALWGHEDIAEVLQKAAGSPTPTPTTPTPTPTTPTPTPTGSDLGKKLLVAANVGQDDEVRILLAAGADVNAKDYHGYTPLHHAATYGHLEIVEVLLKAGADVNAKDQTGLTPLHLAAAKGHLEIVEVLLKAGADVNAQDHHGYTPADLAAFVGHEDIAVVLQKLN
- binding [1]: binds

These are yes or no findings as the source states them, for the method shown. A result given as binding can be weak or reduced; the word gives no strength.
